PubChem BioAssay AID686938 – Drosophila RNAi Screening Center, 2013

Aim: 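Looking for CRAC channel components and the factors controlling them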 (primary screen)
Cell system: Drosophila S2R+ cells
Reagent: long dsRNA against Drosophila genes, about 0.25 µg dsRNA per well, roughly 10,000 cells
Duration: 5 days of knock-down before the calcium assay
Conditions: thapsigargin (SERCA pump blocker) to empty calcium stores; entry signal taken 4 min after adding it
Measured: 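Per-well fluo-4 fluorescence in two replicates, unnormalised, measured in resting cells and 4 min after store depletion by the SERCA blocker thapsigargin; ratio of the two present in few wells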
Scale: calcium entry signal: higher = stronger calcium signal after store depletion; resting calcium signal: higher = higher resting calcium signal
Active means: 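Hit if the duplicate-averaged plate z-score for entry over resting signal is under −3; wells with weak total dye signal (Fmax z < −2) or more than 5 off-targets removed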
Meaning of the calls: active = strongly reduced calcium entry; inactive = no strong reduction
In all, the deposit lists about 23,000 reagents; this is a random part of those that have a named target and a result. Over the whole deposit, 75 (0.33%) got an active call. 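Raw plate signals without normalisation; calls rest on plate z-scores that were not deposited; ratio present for only 364 wells.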 Unmarked entries are inactive. Names joined by + are all predicted targets of the reagent. The record does not give: the dose of the treatment.

target gene | dsRNA | calcium entry signal, replicate 1 (fluorescence units) | calcium entry signal, replicate 2 (fluorescence units) | resting calcium signal, replicate 1 (fluorescence units) | resting calcium signal, replicate 2 (fluorescence units)
Alg7 | DRSC02833 | 4.04e7 | – | 2.27e7 | –
Alg7 | DRSC02834 | 4.23e7 | 3.49e7 | 2.07e7 | 1.76e7
kkv | DRSC12315 | 2.79e7 | 3.23e7 | 1.18e7 | 1.48e7
crm | DRSC18754 | 3.33e7 | 3.83e7 | 1.56e7 | 1.88e7
CG6928 | DRSC10749 | 4.34e7 | 4.43e7 | 3.16e7 | 1.81e7
CG4658 | DRSC02768 | 3.61e7 | 4.37e7 | 1.62e7 | 1.80e7
CG4744 | DRSC06887 | 2.20e7 | 2.73e7 | 9.82e6 | 1.23e7
CG8289 | DRSC20101 | 3.93e7 | 3.99e7 | 1.83e7 | 1.73e7
Acp53Ea | DRSC05916 | 4.02e7 | 4.43e7 | 1.83e7 | 2.22e7
CG43315 | DRSC06296 | 2.60e7 | 3.81e7 | 1.35e7 | 1.64e7
CG15109 | DRSC06536 | 4.02e7 | 4.08e7 | 1.76e7 | 1.87e7
Alg12 | DRSC16416 | 3.45e7 | 3.59e7 | 1.73e7 | 1.98e7
Cyp12b2 | DRSC07364 | 5.00e7 | 5.57e7 | 2.16e7 | 2.54e7
Tsp97E | DRSC16019 | 2.87e7 | 3.94e7 | 1.41e7 | 2.02e7
CG5024 | DRSC15698 | 3.84e7 | 5.08e7 | 1.85e7 | 2.06e7
E(spl)m3-HLH | DRSC16694 | 2.40e7 | 4.38e7 | 1.56e7 | 2.33e7
E(spl)m3-HLH | DRSC23160 | 5.04e7 | 2.30e7 | 2.38e7 | 1.06e7
pasi1 | DRSC16299 | 2.11e7 | 2.74e7 | 1.38e7 | 3.75e7
pasi1 | DRSC22385 | 3.35e7 | 4.54e7 | 1.58e7 | 2.22e7
lobo | DRSC14662 | 3.53e7 | 7.23e7 | 1.94e7 | 3.00e7
lobo | DRSC14663 | 4.52e7 | 7.52e7 | 2.25e7 | 3.03e7
CG17198 + CG17197 | DRSC15190 | 5.26e7 | 3.79e7 | 2.42e7 | 1.57e7
CG17198 + CG17197 | DRSC15191 | 4.34e7 | 4.11e7 | 2.01e7 | 1.64e7
Sem1 | DRSC02282 | 2.35e7 | 2.46e7 | 1.44e7 | 1.47e7
CG13698 | DRSC10047 | 4.70e7 | 5.69e7 | 2.12e7 | 3.76e7
CG12929 | DRSC06242 | 4.79e7 | 4.51e7 | 2.27e7 | 1.55e7
woc | DRSC15928 | 3.15e7 | 3.57e7 | 1.60e7 | 1.75e7
CG15537 | DRSC15073 | 3.77e7 | 4.30e7 | 1.83e7 | 1.75e7
Ir68b | DRSC10251 | 3.05e7 | 4.34e7 | 1.68e7 | 2.00e7
CG3719 | DRSC18493 | 4.43e7 | 3.06e7 | 2.34e7 | 1.67e7
Nnf1b | DRSC22080 | 4.09e7 | 6.50e7 | 1.88e7 | 3.41e7
glob1 | DRSC16959 | 1.92e7 | 2.03e7 | 1.03e7 | 9.37e6
TpnC47D | DRSC07564 | 2.81e7 | 3.93e7 | 1.41e7 | 1.66e7
mtgo | DRSC02245 | 4.85e7 | 4.34e7 | 2.17e7 | 2.07e7
mtgo | DRSC02246 | 4.16e7 | 3.67e7 | 1.90e7 | 1.77e7
mtgo | DRSC02769 | 5.59e7 | – | 2.69e7 | –
mtgo | DRSC21392 | 4.41e7 | 3.96e7 | 2.47e7 | 1.89e7
mtgo | DRSC21743 | 3.40e7 | 3.79e7 | 1.84e7 | 1.71e7
CG13160 | DRSC06284 | 2.92e7 | 3.77e7 | 1.48e7 | 1.53e7
O-fut2 | DRSC18608 | 2.16e7 | 2.43e7 | 1.09e7 | 1.35e7
Tace | DRSC16340 | 2.91e7 | 4.18e7 | 1.37e7 | 1.84e7
dpn | DRSC07605 | 2.97e7 | 3.84e7 | 1.48e7 | 1.66e7
ASPP | DRSC04305 | 2.67e7 | 3.23e7 | 1.53e7 | 1.49e7
ASPP | DRSC23069 | 4.65e7 | 3.33e7 | 2.13e7 | 1.30e7
CG6927 | DRSC18407 | 2.99e7 | 2.26e7 | 1.31e7 | 1.10e7
thoc5 | DRSC04327 | 3.65e7 | – | 1.69e7 | –
CG7707 | DRSC10903 | 2.17e7 | 3.94e7 | 1.29e7 | 1.61e7
CG30050 | DRSC05342 | 5.11e7 | 3.87e7 | 2.17e7 | 1.51e7
CG6961 + CG18259 | DRSC19799 | 5.22e7 | 3.88e7 | 2.35e7 | 1.61e7
CG6961 + CG18259 | DRSC20019 | 5.15e7 | 5.59e7 | 2.29e7 | 2.33e7
CG9263 | DRSC03176 | 3.57e7 | 2.29e7 | 1.66e7 | 1.15e7
CG43397 + CG12902 | DRSC06217 | 3.91e7 | 3.37e7 | 1.90e7 | 1.63e7
CG15118 | DRSC06540 | 2.98e7 | 2.57e7 | 1.45e7 | 1.34e7
CG43109 | DRSC05754 | 3.47e7 | 4.26e7 | 1.64e7 | 2.13e7
Mur29B | DRSC01018 | 4.77e7 | 4.69e7 | 2.40e7 | 2.13e7
Mur29B | DRSC02376 | 3.03e7 | 5.56e7 | 1.52e7 | 2.32e7
Nep7 | DRSC15830 | 2.73e7 | 4.31e7 | 1.44e7 | 1.89e7
CG12531 | DRSC19466 | 3.89e7 | 3.27e7 | 1.79e7 | 1.37e7
